This is an account of results in article PMC6856805, “Environmental Risk Assessment for the Active Pharmaceutical Ingredient Mycophenolic Acid in European Surface Waters” (Environmental Toxicology and Chemistry, 2019).

A short description of data set [1]: Influent/effluent removal in industrial activated sludge STP at a Roche production site. As to conditions: for average removal in STP / median removal in STP: all 8 measurements; for negative removal in STP: one weekly sample.
On the set-up of data set [2]: method as in Franquet‐Griell et al. (2017a). Conditions: ref Franquet‐Griell et al. (2017a), cited from earlier work.
A short description of data set [3]: River sediment/water fate test (US FDA Guideline 3.11) with 14C-MPM. As to conditions: for 50% disappearance time (DT50): river water/sediment systems; for applied 14C activity bound to sediment / applied 14C activity remained in water / applied 14C activity trapped as 14CO2: end of test (64 d).
A short description of data set [4]: OECD test guideline 314B activated sludge biodegradation simulation test. The source says:
Mineralization comprises evolved CO2 (detected in the traps) as well as CO2 dissolved in the sludge. The latter was highest at day 2 and decreased afterward, whereas the amount of evolved CO2 increased continuously until the end of the study. […] At no time point was a noteworthy amount of radioactivity (>2% iRR throughout the test period) detected in the liquor after extraction. Radioactivity in the solids extract was highest at day 0 (5.5% iRR) and decreased afterward to 0.3% iRR after 28 d.
Based on this k biodeg and physicochemical properties for MPA, SimpleTreat 4.0 (Struijs 2015) calculated a removal of 12% in STPs, mostly through biodegradation (0.27% in the primary settler and 11.5% in the aeration tank), with a small fraction of 0.13% adsorbed to sludge, in agreement with the OECD test guideline106 (Organisation for Economic Co‐operation and Development 2000) adsorption results mentioned in the previous paragraph (V. Halász‐Laky, unpublished data). However, when the k biodeg data developed by Franquet‐Griell et al. (2017a) were entered in the sequencing batch reactor for k biodeg of 0.0017 min^–1 in the first cycle, SimpleTreat calculated a removal of 43.6% in STPs (0.272% biodegradation primary settler, 43.24% aeration tank; 0.080% adsorbed); for k biodeg in the fifth cycle of 0.006 min^–1, SimpleTreat calculated a removal of 73.1% in STPs (0.272% primary settler, 72.77% aeration tank; 0.0373% adsorbed; Struijs 2015). A high degradation rate is supported by data from Franquet‐Griell et al. (2017b), who measured STP influents and effluents and compared solid phase extraction and macroporous ceramic passive samplers in Spain. The STP in question treats 65% of the wastewaters from Barcelona and surroundings (2 843 750 inhabitant equivalents) and receives urban waters, effluents from 3 large hospitals, and industrial waters; the STP performs biological treatment without nitrogen and phosphorus removal. Based on substance concentrations in effluent and influent, removal rates of >90% emerged for MPA (Franquet‐Griell et al. 2017b).
The OECD 314 B activated sludge degradation test (Junker & Herrchen 2017) fulfilled all quality and validity criteria. Specifically, the radioactivity measured at day 0 in the test vessels was 7412.5 dpm/mL (112.7% of nominal; replicate A) and 7457.0 dpm/mL (113.3% of nominal; replicate B), corresponding to a test item concentration of 22.5 and 22.7 μg/L, respectively. The mean recovery per sampling time point relative to nominally applied radioactivity (aR) was between 104.6% aR (day 28) and 114.5% aR (day 2), while the overall mean recovery for all sampling time points was 108.7±4.0% aR. The mean recovery per sampling time point relative to initially recovered radioactivity (iRR) was between 92.6% iRR (day 28) and 101.3% iRR (day 2), while the overall mean recovery for all sampling time points was 96.2±3.5% iRR.

The structures appear in SMILES notation. Some results are limits rather than exact numbers.

Turning to `COc1c(C)c2c(c(O)c1CC=C(C)CCC(=O)O)C(=O)OC2` [MPA, 6‐(1,3‐dihydro‐4‐hydroxy‐6‐methoxy‐7‐methyl‐3‐oxo‐5‐isobenzofuranyl)‐4‐methyl‐4‐hexenoic acid], in data set [1], the “average removal in STP” value is given as 52%, the “median removal in STP” value was found to be 83% and the “negative removal in STP” value was “–73%”. Further, in data set [2] (fifth cycle), the “MPA detected after 24 h” value was “no MPA at all was detected”. The “MPA still detected after 48 h” value in data set [2] (first cycle) is given as “approximately 58%”.

Take `COc1c(C)c2c(c(O)c1C/C=C(\C)CCC(=O)OCCN1CCOCC1)C(=O)OC2` [MPM, mycophenolate mofetil]: the “50% disappearance time (DT50)” value in data set [3] was under 2 days. Further, in data set [1], the “average removal in STP” value came to 52%, the “median removal in STP” value turned out to be 83% and the “negative removal in STP” value is “–73%”.

For the molecule `COc1c(C)c2c(c(O)c1C/C=C(\C)CCC(=O)O)C(=O)OC2` [^14C‐MPA, Mycophenolic acid, [carboxyl‐14C]], the “50% disappearance time (DT50)” value in data set [3] is given as “approximately 14 d”. Moreover, the “radioactivity in the solids extract” value in data set [4] (after 28 d) is listed as 0.3 % iRR; in data set [4] (day 0) it was 5.5 % iRR. For the same molecule, the “radioactivity in liquor extracts” value in data set [4] (day 0) is 82.5 % iRR; in data set [4] (end of the test) it was 1.2 % iRR. In addition, the nonextractable residues in data set [4] (day 2) is reported as 10.2 % iRR; in data set [4] (day 28), 7.3 % iRR. In data set [4] (day 28), this molecule displayed a mineralization of 82.2 % iRR.

For the molecule `COc1c(C)c2c(c(O)c1C/C=C(\C)CC[14C](=O)OCCN1CCOCC1)C(=O)OC2` [carboxyl‐^14C‐labeled MPM], in data set [3] (1 mg/L dosing), the “applied 14C activity bound to sediment” value was determined as 17.6%, the “applied 14C activity remained in water” value turned out to be 4.8% and the “applied 14C activity trapped as 14CO2” value stood at 58.9%. Moreover, in data set [3] (5 mg/L dosing), the “applied 14C activity bound to sediment” value was determined as 20.3%, the “applied 14C activity remained in water” value was found to be 6.7% and the “applied 14C activity trapped as 14CO2” value is listed as 60.2%.
